Source: PubChem BioAssay AID1671190 (National Center for Advancing Translational Sciences (NCATS), 2021)
About 6,100 (1.1%) of roughly 580,000 compounds were called active. The shares of active, inactive and inconclusive entries below differ from those in the screen. Calls come from the whole dose curve; as a rule, active = well fitted inhibition curve with a large enough effect; inconclusive = small, poorly fitted or top-dose-only effect, or another doubt; inactive = no such curve, though single readings can be large or run the other way. A potency beside an inconclusive call is a rough fit, not a confirmed value.

Chains of the proteins cited; added tags and fusions are not shown. Lines headed by an entry give the natural chain unless they say otherwise; changes in a name come on top.
UniProt P18054: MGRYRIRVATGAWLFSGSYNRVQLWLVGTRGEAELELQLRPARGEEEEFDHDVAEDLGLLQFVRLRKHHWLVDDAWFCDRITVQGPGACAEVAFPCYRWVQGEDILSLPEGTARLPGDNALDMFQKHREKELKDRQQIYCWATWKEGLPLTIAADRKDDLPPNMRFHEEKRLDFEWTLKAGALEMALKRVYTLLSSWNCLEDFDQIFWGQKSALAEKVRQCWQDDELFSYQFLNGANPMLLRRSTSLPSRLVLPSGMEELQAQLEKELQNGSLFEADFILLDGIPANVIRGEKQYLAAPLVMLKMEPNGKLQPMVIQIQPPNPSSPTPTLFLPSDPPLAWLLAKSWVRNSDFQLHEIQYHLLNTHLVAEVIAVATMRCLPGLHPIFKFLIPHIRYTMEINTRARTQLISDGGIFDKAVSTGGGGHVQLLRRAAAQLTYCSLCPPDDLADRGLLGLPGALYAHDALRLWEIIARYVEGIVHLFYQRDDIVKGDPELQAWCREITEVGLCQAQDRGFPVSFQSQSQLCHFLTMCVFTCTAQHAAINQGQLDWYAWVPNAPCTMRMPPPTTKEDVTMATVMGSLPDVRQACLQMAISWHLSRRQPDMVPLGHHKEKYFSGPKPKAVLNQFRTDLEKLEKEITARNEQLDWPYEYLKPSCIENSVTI

These compounds were tested against Polyunsaturated fatty acid lipoxygenase ALOX12 (Homo sapiens) (UniProt P18054) (assay: Primary qHTS assay for inhibitors of human arachidonate 12S-lipoxygenase (ALOX12): Round 2). Conditions: purified 12hLO, xylenol orange hydroperoxide absorbance; activity change, negative = inhibition: at 108 µM (top of the series) unless noted.
Method in brief: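 Purified human 12hLO (150 nM final) in 25 mM Hepes, 0.01% Triton X-100, pH 7.0 was preincubated 15 min at room temperature with compound. Then 40 uM arachidonic acid was added, 30 min. Hydroperoxide was read by Fe-XO absorbance ratio 573/405 nm.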
% is set by controls: 0 for no effect and ±100 for the full control effect; potency is the fitted concentration of half-maximal effect.

SMILES | Potency | activity change, negative = inhibition
CC(=NNc1nc2ccccc2o1)c1cc2ccccc2cn1 | inconclusive: 126 µM [inhibitor, partial curve, poor fit] | 
O=C(N/N=C/c1ccccc1F)C(=O)N1CCCCCC1 |  | inactive: -23.8%
CC(C)[C@H](NC(=O)NCc1ccc(Cl)cc1)C(=O)O |  | inactive: 15.8%
COC(=O)CNC(=O)C1Nc2ccc(OC(F)(F)F)cc2C2C=CCC12 (stereo not drawn) | inconclusive: 50.1 µM [inhibitor, partial curve, poor fit] | 
O=C1C(=O)N(c2ccc(O)cc2)C(c2ccccc2[N+](=O)[O-])/C1=C(\O)c1ccccc1 (stereo not drawn) | inconclusive: 44.7 µM [inhibitor, partial curve, poor fit] | 
COc1cccc(-n2c(SCc3cc(=O)oc4cc(O)c(O)cc34)nc3ccccc3c2=O)c1 | active: 7.08 µM | 
CCCCCn1c(N2CCCC(C)C2)nc2c1c(=O)[nH]c(=O)n2C (stereo not drawn) |  | inactive: -16.8%
Cc1cc(C)cc(NCc2ccccc2CO)c1 | inconclusive: 25.1 µM [inhibitor, partial curve, poor fit] | 
Cn1c(=O)c2c(ncn2CC(=O)c2ccc3c(c2)CCC3)n(C)c1=O | inconclusive: 0.0891 µM [inhibitor, full curve, poor fit] | 
CC1CCC(N2CCN(c3ccc([N+](=O)[O-])cc3)CC2)CC1 (stereo not drawn) | inconclusive: 70.8 µM [inhibitor, partial curve, poor fit] | 
CC(C)CN(C(=O)Cc1c[nH]c2ccccc12)c1nc2ccccc2s1 | inconclusive: 70.8 µM [inhibitor, single point] | 
Cc1ccsc1C(=O)OCC(=O)N1CC(C)CC(C)C1 (stereo not drawn) | inconclusive: 35.5 µM [inhibitor, single point] | 
Cc1[nH]cnc1-c1nccn1-c1ccc(CCC(=O)NC2CC2)cc1 |  | inactive: 60.7%
N#CCC(=O)Nc1ccc(C(=O)OCC(=O)N2CCN(c3ccccc3)CC2)cc1 |  | inactive: -1.17%
N#Cc1ccsc1NC(=O)C1CC(=O)N(Cc2ccccc2)C1 (stereo not drawn) | inconclusive: 56.2 µM [inhibitor, partial curve, poor fit] | 
COc1ccc(NC(=O)C(=O)NCCN2CCN(C(=O)c3cccc(Br)c3)CC2)cc1 |  | inactive: 9.55%
CCOc1cc(/C=C(/C#N)c2ccc(Cl)cc2)cc(Cl)c1OCC(=O)O | inconclusive: 44.7 µM [inhibitor, partial curve, poor fit] | 
Cc1cc(NC(=O)C(C)SCC(=O)N(C)CC(=O)Nc2ccc(F)cc2)no1 (stereo not drawn) | inconclusive: 44.7 µM [inhibitor, partial curve, poor fit] | 
COc1ccc(Cn2nnnc2C(c2ccccc2)N2CCN(C3CCCC3)CC2)cc1 (stereo not drawn) |  | inactive: 7.68%
CCCN1C2CCCC1CC(NC(=O)c1ccc(C(C)(C)C)cc1)C2 (stereo not drawn) |  | inactive: 0%
CCCC(=O)Nc1ccc(CNCc2ccc(Br)cc2)cc1 | inconclusive: 39.8 µM [inhibitor, partial curve, poor fit] | 
COc1ccc(CN2C(=O)COC[C@H]2C(=O)N2CCC(Cc3ccccc3)CC2)cc1 |  | inactive: 16.5%
O=C(COC(=O)COc1ccc(C2SCCCS2)cc1)Nc1ccc(F)c(F)c1 | inconclusive: 56.2 µM [inhibitor, partial curve, poor fit] | 

SMILES | Potency | activity change, negative = inhibition
Cc1nc(=O)c(-c2ccccc2)c(C)n1-c1ccccc1 | inconclusive: 31.6 µM [inhibitor, partial curve, poor fit] | 
COc1cc(C(=O)/C=C/c2ccc(Cl)cc2)ccc1OCC(=O)O | inconclusive: 35.5 µM [inhibitor, partial curve, poor fit] | 
CC(C)(C)c1cc(CN2CCC(O)CC2)cc(C(C)(C)C)c1O | inconclusive: 3.16 µM [inhibitor, full curve, poor fit] | 
COc1ccc(S(=O)(=O)NCCSCc2ccco2)cc1 | inconclusive: 44.7 µM [inhibitor, partial curve, poor fit] | 
CCOc1ccccc1OCCOCCN1CC(C)OC(C)C1 (stereo not drawn) |  | inactive: -30.5%
Cc1cc(C)c2nc(NNC(=O)c3ccc(S(=O)(=O)N4CCCC(C)C4)cc3)sc2c1 (stereo not drawn) | active: 5.62 µM | 
COc1cc(/C=C2\C(=N)N3N=C(N4CCOCC4)SC3=NC2=O)ccc1OC(=O)c1ccccc1 |  | inactive: -19.2%
COCCN1C[C@H]2CN(Cc3ccc(C(=O)O)cc3)CCN2C1=O | active: 28.2 µM | 
S=C(NCC1CCCO1)Nc1ccc(Cl)c(Cl)c1 (stereo not drawn) | inconclusive: 79.4 µM [inhibitor, single point] | 
NC(=O)c1ccccc1N=Cc1ccc(O)cc1 | inconclusive: 50.1 µM [inhibitor, partial curve, poor fit] | 
Cc1ccc(C(=O)Nc2nc(-c3ccc4c(c3)OCCO4)cs2)o1 | inconclusive: 44.7 µM [inhibitor, partial curve, poor fit] | 
CC[C@]1(O)C[C@@H]2CN(CCc3c([nH]c4ccccc34)[C@@](C(=O)OC)(c3cc4c(cc3OC)N(C)C3[C@]45CCN4CC=C[C@](CC)(C45)[C@@H](OC(C)=O)[C@]3(O)C(=O)OC)C2)C1 (stereo partly drawn) |  | inactive: 6.62% [at 57.4 µM]
Cc1[nH]c2ccccc2c1/C=N/NC(=S)NC(C)C | inconclusive: 11.2 µM [inhibitor, full curve, poor fit] | 
Cc1ccsc1C(=O)N1CCc2nnc([C@@H]3C[C@@H](O)CN3C(C)C)n2CC1 | inconclusive: 2.51 µM [inhibitor, full curve] | 
COc1cc2c(cc1OC)C(C[C@H]1CN(S(=O)(=O)c3ccc(Cl)cc3)CC[C@H]1CC(=O)O)=NCC2 | inconclusive: 70.8 µM [inhibitor, partial curve, poor fit] | 
CCCc1c(NC(=O)Nc2ccc(F)cc2)cnn1-c1ccccc1 | inconclusive: 112 µM [inhibitor, single point] | 
C=CCS/C(N)=N\N=C\c1c(O)ccc2ccccc12 | inconclusive: 22.4 µM [inhibitor, partial curve, poor fit] | 
COc1ccc(CCNC(=O)CSc2nc(C)cc(C)n2)cc1OC |  | inactive: 3.54%
O=C(Cc1cccs1)Nc1cccc([N+](=O)[O-])c1 |  | inactive: -19.2%
CCCNC(=O)C1COC2(CCN(C(=O)c3cccc(OC)c3)CC2)N1C(=O)c1cccc(F)c1 (stereo not drawn) |  | inactive: 86.8%
COC(=O)C(=O)CC(=O)c1ccc(N2CCOCC2)cc1 | inconclusive: 0.398 µM [inhibitor, full curve, poor fit] | 
CNC(=O)C(C)Sc1cc(-c2ccccc2)c2ccc(OC)cc2n1 (stereo not drawn) | inconclusive: 4.47 µM [inhibitor, full curve, poor fit] | 
Cc1ccc(NC(=S)N(CCCN2CCOCC2)Cc2ccccn2)cc1Cl |  | inactive: -14.9%

SMILES | Potency | activity change, negative = inhibition
CC(=NNC(N)=S)c1ccc2cc3c(cc2c1)OCO3 | inconclusive: 7.08 µM [inhibitor, full curve, poor fit] | 
O=C(Nc1ccc(F)cc1)C1C(c2ccccc2)C1(Cl)Cl (stereo not drawn) | active: 7.08 µM | 
CCOc1ccc(Oc2ccccc2N)cc1 | inconclusive: 3.55 µM [inhibitor, full curve, poor fit] | 
N/C(=N\OC(=O)/C=C/c1ccccc1Cl)c1ccccn1 |  | inactive: -7.1%
Cc1ccc(-c2csc3nc(CN(C)Cc4ccccc4)[nH]c(=O)c23)cc1 |  | inactive: 4.35%
CC(=O)Nc1ccc(NC(=O)c2ccc(NC(=O)c3ccccc3)cc2)cc1 | inconclusive: 44.7 µM [inhibitor, partial curve, poor fit] | 
CC(C)(CNC(=S)Nc1cccc(C(F)(F)F)c1)N1CCCCC1 | inconclusive: 44.7 µM [inhibitor, partial curve, poor fit] | 
O=C1CN=C(Nc2ccc(Cl)cc2)N1c1ccccc1 | inconclusive: 35.5 µM [inhibitor, single point] | 
CCOC(=O)c1c[nH]c2c(Cl)ccc(Cl)c2c1=O |  | inactive: -20.3%
COc1ccc(C)cc1NC(=O)c1cc(S(=O)(=O)NCCC2=CCCCC2)ccc1F | inconclusive: 126 µM [inhibitor, partial curve, poor fit] | 
FC(F)(F)c1cc(CCN2C(=S)NC[C@@H]2c2ccccc2)cc(C(F)(F)F)c1 | inconclusive: 44.7 µM [inhibitor, partial curve, poor fit] | 
O=C(Nc1ccc(Cl)cc1F)C1CC(=O)N(Cc2ccco2)C1 (stereo not drawn) | inconclusive: 10 µM [inhibitor, partial curve, poor fit] | 
COc1cc(NC(=S)NC(=O)c2ccccc2F)ccc1NC(=O)c1ccco1 |  | inactive: -11.5%
O=C(CSCc1ccc(F)cc1)N1CCc2c([nH]c3ccccc23)C1c1ccccc1 (stereo not drawn) | inconclusive: 56.2 µM [inhibitor, partial curve, poor fit] | 
CC1CCC(C(C)C)C(OC(=O)COC(=O)c2cc(O)ccc2N)C1 (stereo not drawn) | inconclusive: 44.7 µM [inhibitor, partial curve, poor fit] | 
CCOC(=O)C1=CN(Cc2ccco2)S(=O)(=O)N(C)C1c1ccc(C(F)(F)F)cc1 (stereo not drawn) | inconclusive: 5.01 µM [inhibitor, full curve] | 
COC(=O)c1cc(COc2ccc3ccc(=O)oc3c2)c(C)o1 |  | inactive: 0%
Cc1nc(-c2cccc(Cl)c2)n(CC(=O)Nc2ccc(C(F)(F)F)cc2)c(=O)c1CCO | inconclusive: 56.2 µM [inhibitor, partial curve, poor fit] | 
NC(=O)C1CCN(c2nc(-c3ccccc3-c3ccccc3)cs2)CC1 | inconclusive: 39.8 µM [inhibitor, partial curve, poor fit] | 
COCCN1C(=O)c2oc3ccccc3c(=O)c2C1c1ccc(C(=O)OC)cc1 (stereo not drawn) |  | inactive: 391%
COc1cccc(C2Cn3nnc(-c4nc(-c5cccc(C(F)(F)F)c5)no4)c3CO2)c1 (stereo not drawn) |  | inactive: 36.4%
COc1ccc(NC(=O)Nc2ccc(N(C)C)cc2)cc1 |  | inactive: 0%

Shown as a markdown table: 17 of the compounds above

| SMILES | Potency | activity change, negative = inhibition |
| --- | --- | --- |
| CC(=NNC(N)=S)c1ccc2cc3c(cc2c1)OCO3 | inconclusive: 7.08 µM [inhibitor, full curve, poor fit] |  |
| O=C(Nc1ccc(F)cc1)C1C(c2ccccc2)C1(Cl)Cl (stereo not drawn) | active: 7.08 µM |  |
| CCOc1ccc(Oc2ccccc2N)cc1 | inconclusive: 3.55 µM [inhibitor, full curve, poor fit] |  |
| N/C(=N\OC(=O)/C=C/c1ccccc1Cl)c1ccccn1 |  | inactive: -7.1% |
| Cc1ccc(-c2csc3nc(CN(C)Cc4ccccc4)[nH]c(=O)c23)cc1 |  | inactive: 4.35% |
| CC(=O)Nc1ccc(NC(=O)c2ccc(NC(=O)c3ccccc3)cc2)cc1 | inconclusive: 44.7 µM [inhibitor, partial curve, poor fit] |  |
| CC(C)(CNC(=S)Nc1cccc(C(F)(F)F)c1)N1CCCCC1 | inconclusive: 44.7 µM [inhibitor, partial curve, poor fit] |  |
| O=C1CN=C(Nc2ccc(Cl)cc2)N1c1ccccc1 | inconclusive: 35.5 µM [inhibitor, single point] |  |
| CCOC(=O)c1c[nH]c2c(Cl)ccc(Cl)c2c1=O |  | inactive: -20.3% |
| COc1ccc(C)cc1NC(=O)c1cc(S(=O)(=O)NCCC2=CCCCC2)ccc1F | inconclusive: 126 µM [inhibitor, partial curve, poor fit] |  |
| FC(F)(F)c1cc(CCN2C(=S)NC[C@@H]2c2ccccc2)cc(C(F)(F)F)c1 | inconclusive: 44.7 µM [inhibitor, partial curve, poor fit] |  |
| O=C(Nc1ccc(Cl)cc1F)C1CC(=O)N(Cc2ccco2)C1 (stereo not drawn) | inconclusive: 10 µM [inhibitor, partial curve, poor fit] |  |
| COc1cc(NC(=S)NC(=O)c2ccccc2F)ccc1NC(=O)c1ccco1 |  | inactive: -11.5% |
| O=C(CSCc1ccc(F)cc1)N1CCc2c([nH]c3ccccc23)C1c1ccccc1 (stereo not drawn) | inconclusive: 56.2 µM [inhibitor, partial curve, poor fit] |  |
| CC1CCC(C(C)C)C(OC(=O)COC(=O)c2cc(O)ccc2N)C1 (stereo not drawn) | inconclusive: 44.7 µM [inhibitor, partial curve, poor fit] |  |
| CCOC(=O)C1=CN(Cc2ccco2)S(=O)(=O)N(C)C1c1ccc(C(F)(F)F)cc1 (stereo not drawn) | inconclusive: 5.01 µM [inhibitor, full curve] |  |
| COC(=O)c1cc(COc2ccc3ccc(=O)oc3c2)c(C)o1 |  | inactive: 0% |
